Measured values reported in PubChem BioAssay AID2685 (National Center for Advancing Translational Sciences (NCATS), 2010).
This is one part of the list. These are further read-outs of the screen, such as a control signal, another cell line or another target. No call is given for them. Compounds called inactive in the main read-out are mostly missing here. The note in brackets gives the kind of curve behind each potency; many fits are weak.

Test: qHTS Assay for Lipid Storage Modulators in Drosophila S3 Cells;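 on cell number change: cells counted by Cell Tracker Red CMTPX staining in the red channel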
Settings: BODIPY lipid droplet fluorescence, 18-24 h; for cell number change: measured here: cell count max response, cells fed with added oleic acid
In short: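 Drosophila S3 cells loaded with oleic acid (400 uM, as added) and compounds at several concentrations; lipid droplets imaged by 488-nm laser-scanning cytometry, 500–530 nm intensity and object ratio to cell channel. Percent activity normalized to 20 uM Triacsin C.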

[1] = measured here: lipid fluorescence (Fed channel) AC50, cells fed with added oleic acid
[2] = measured here: cell number channel AC50, cells fed with added oleic acid

| SMILES | cell number change [%] | AC50 [1] | AC50 [2] |
| --- | --- | --- | --- |
| CCc1ccc(C2CC(c3ccc(C)cc3)Nc3nc(N)nn32)cc1 (stereo unspecified) | 8.48 | 2.91 µM [rising, partial curve] | – |
| O=c1cc(CN2CCC(Cc3ccccc3)CC2)nc2sccn12 | -2.71 | – | – |
| O=C(CNC(=O)c1ccc(Br)o1)Nc1cccc(-c2cnc3ccccc3n2)c1 | -43.4 | 18.4 µM [falling, single point] | 20.6 µM [falling, single point] |
| COc1ncc(-c2ccc3c(c2)S(=O)(=O)c2cccc(C(=O)O)c2C3=O)cn1 | 19.9 | 6.51 µM [falling, single point] | – |
| CCCNC(=O)NC(=O)CN1CCCC1c1ccc2c(c1)OCCO2 (stereo unspecified) | 26.5 | – | – |
| COc1ccc(CCNCC(=O)Nc2ccc(C)c(S(=O)(=O)N(C)C)c2)cc1 | -2.2 | – | – |
| O=C(CSc1ccccc1F)NCC1(N2CCCCC2)CCCCC1 | 1.25 | 29.1 µM [rising, single point] | – |
| CCOc1cccc(CNc2ccc(O)cc2)c1OCc1ccccc1Cl | -69.4 | 16.4 µM [falling, single point] | 29.1 µM [falling, single point] |
| CN1CCN(c2ccc([N+](=O)[O-])cc2/C=N/NC(=O)c2ccc(F)cc2)CC1 | 28.1 | – | – |
| COc1cc(/C=C(/C#N)c2ccc(C)cc2)ccc1Oc1ccc([N+](=O)[O-])cn1 | – | 1.3 µM [rising, full curve] | 1.3 µM [rising, full curve] |
| COc1ccc(CNC(=O)COC(=O)c2ccc(OCc3c(C)noc3C)cc2)cc1OC | -79.8 | 0.00517 µM [falling, full curve, poor fit] | 1.84 µM [falling, partial curve] |
| Cc1ccc(C)c(S(=O)(=O)N2CCN(C(=O)CNC(=O)c3ccc4ccccc4c3)CC2)c1 | -10 | – | – |
| O=C(CSc1nnc(-c2ccco2)o1)Nc1c(F)cccc1F | – | 0.092 µM [falling, full curve] | – |
| Cc1noc2ncc(C(=O)c3cc(F)ccc3O)cc12 | – | 4.11 µM [rising, single point] | – |
| N#C/C(=C\c1c(Oc2ccccc2F)nc2ccccn2c1=O)C(=O)NC1CCS(=O)(=O)C1 (stereo unspecified) | 23 | 29.1 µM [falling, single point] | – |
| Cc1cc(C)cc(NC(=O)c2cccc(NC3=NC4CS(=O)(=O)CC4S3)c2)c1 (stereo unspecified) | -15 | 16.4 µM [falling, partial curve, poor fit] | – |
| CC1CCCN(C(=O)c2cc(-c3ccco3)nc3ccccc23)C1 (stereo unspecified) | -48.8 | 1.03 µM [falling, full curve, poor fit] | 1.03 µM [falling, full curve, poor fit] |

Record cards, as listed above:
Cc1noc2ncc(C(=O)c3cc(F)ccc3O)cc12 as listed: AC50 [1]: 4.11 µM [rising, single point]
COc1ccc(CNC(=O)COC(=O)c2ccc(OCc3c(C)noc3C)cc2)cc1OC as listed: cell number change [%]: -79.8; AC50 [1]: 0.00517 µM [falling, full curve, poor fit]; AC50 [2]: 1.84 µM [falling, partial curve]
